Results are given as percent effect.
How 0% and 100% were set is not recorded. Most values in the screen are low, and negative values occur.
The compounds are a random part of those screened.
A dash means the value is not listed here; it may have been measured.

Mtb growth Cornell: 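Whole-cell assay for inhibitors of Mycobacterium tuberculosis growth, labelled Cornell in the record; the read-out is not stated. The concentration is filed as 10 mM, unlikely as a test dose, so the dose is not known. The record gives no direction; compounds strong in two other growth screens of this library score well above the rest, so higher reads as stronger inhibition. Size under these conditions: about 53,000 compounds, about 900 of them at 50% or above in at least one test.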
Mtb heat-shock: 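Assay on Mycobacterium tuberculosis, filed only as a heat shock assay from Cornell; the read-out is not stated. The concentration is filed as 10 mM, unlikely as a test dose, so the dose is not known. Direction is inferred from retests: higher values go with stronger inhibition. About 69,000 compounds were tested under these conditions; 1.4% (about 930) showed 50% or more at least once.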

| # | SMILES | Mtb growth Cornell | Mtb heat-shock |
|---|---|---|---|
| 1 | `CN(Cc1cnccn1)S(=O)(=O)c1ccc(C(F)(F)F)nc1` | -14.08 | -7.207 |
| 2 | `CCN(C)Cc1cccc(CNC(=O)CSCc2ccccn2)c1` | -29.89 | 0.5543 |
| 3 | `N#CC1CCN(C(=O)CN2CC(c3ccccc3)CC2=O)CC1` (stereo not shown) | -10.3 | 13.69 |
| 4 | `CN(C(=O)c1cccnc1OCC(F)F)c1ccc2c(c1)CCO2` | - | -9.687 |
| 5 | `COc1cccc(Cn2ncc(N(C)CCc3ccccc3)cc2=O)c1` | - | 4.567 |
| 6 | `O=C(c1cccnc1)N1CC(S(=O)(=O)c2ccc(Cl)cc2)C1` | 7.883 | 4.768 |
| 7 | `N#Cc1ncn(CCC(=O)Nc2cc(Cl)ccc2Cl)n1` | 44.53 | -4.258 |
| 8 | `CC(CS(C)(=O)=O)N(C(=O)Nc1cc(F)ccc1Cl)C1CC1` (stereo not shown) | -21.02 | -9.044 |
| 9 | `CCc1ccc(O)c(C(=O)N2CCN(CC(=O)N3CCCCC3)CC2)c1` | 12.85 | -16.28 |
| 10 | `Cc1noc(C)c1CN1CC2(CCN(C(=O)c3ccoc3C)C2)CC1=O` (stereo not shown) | 1.402 | -12.54 |
| 11 | `Cc1nnc(NC(=O)c2cc(S(=O)(=O)N3CCSCC3)c[nH]2)s1` | -1.205 | -39.33 |
| 12 | `Cc1ccnc(NC(=O)CCNC(=O)c2ccccc2Cl)c1` | 22.01 | 8.6 |
| 13 | `Cc1nc(C(NC(=O)CN(C)C(C)C)c2ccccc2F)no1` (stereo not shown) | - | -144 |
| 14 | `CC(c1ccc(Cl)cc1)N1CCN(CCS(N)(=O)=O)CC1` (stereo not shown) | 11.35 | -22.25 |
| 15 | `O=C(O)C(F)(F)F.O=C(O)C(F)(F)F.[H][C@@]12CCN(C(=O)c3ccc(C)nc3)[C@]1([H])CCC(=O)N2CCN(C)C` | -22.01 | -6.085 |
| 16 | `O=C(O)C(F)(F)F.O=C(O)C(F)(F)F.[H][C@@]12CN(Cc3cccs3)CCO[C@]1([H])CN(C1CCOCC1)C2` | 19.66 | 1.268 |
| 17 | `COc1cc(OC)c2nc(NCCN3CCNC3=O)cc(C)c2c1` | -5.882 | -9.632 |
| 18 | `O=C(c1ccccc1)C1CCN(C(=O)CC2COCCN2)CC1` (stereo not shown) | -26.52 | -46.64 |
| 19 | `[H][C@]12CN(Cc3ccccc3Cl)CCN1C(=O)N(Cc1ccc(C)cc1)C2` | - | 4.929 |
| 20 | `CC(C)(C)c1nnc(CN2CCn3c(nnc3C3CC3)C2)o1` | - | 15.94 |
| 21 | `O=C(Cc1c(F)cccc1Cl)NC1CCCCNC1=O` (stereo not shown) | - | -1.324 |
| 22 | `COc1ccccc1C(C)Nc1ncc(C(N)=O)cc1Cl` (stereo not shown) | -54.31 | 21.27 |
| 23 | `CCOc1ccccc1OC1CCN(C(=O)c2nc(=O)[nH][nH]2)CC1` | - | -9.238 |
| 24 | `CCS(=O)(=O)N1CCC2(CN(C(=O)c3cn(C)cn3)C2)C1` | -24.59 | -17.37 |
| 25 | `Cc1nc(C)c(CC(=O)Nc2nnc(C(C)C)s2)c(=O)[nH]1` | - | -1.216 |
| 26 | `[H][C@]12CC[C@]([H])(CN(c3ncccc3C(N)=O)C1)N(Cc1ccccn1)C2=O` | -3.986 | 0.8863 |
| 27 | `CN1C[C@@H](C(=O)N2CCOCC2)[C@@]2(CCc3ccccc3C(=O)N2)C1` | 1.172 | -0.5861 |
| 28 | `COc1ccc(S(=O)(=O)N2CCc3ccc(F)cc32)cc1C(=O)O` | 4.47 | -13.05 |
| 29 | `O=C(O)C(F)(F)F.O=C(O)C(F)(F)F.O=C(O)c1cc2c(nc1NCC1CC1)CCN(C1CCOC1)CC2` (stereo not shown) | 8.909 | -7.339 |
| 30 | `NC1CCCc2c1cnn2-c1cc(F)cc(F)c1` (stereo not shown) | -13.13 | 2.071 |
| 31 | `C[C@H]1CN(C(=O)c2ccoc2)C[C@@]12CCN(CCN(C)C)C2=O.O=C(O)C(F)(F)F` | -26.37 | -17.94 |
| 32 | `CNC(=O)C1CCCN(C(=O)NCCC2Cc3ccccc3C2)C1` (stereo not shown) | 10.91 | -3.833 |
| 33 | `CN(Cc1cnn(C)c1)C1CCCN(Cc2noc(C3CC3)n2)C1` (stereo not shown) | -21.69 | -3.933 |
| 34 | `c1coc(CN2CCn3c(CN4CCOCC4)nnc3C2)c1` | -36.4 | -5.653 |
| 35 | `CCOc1ccccc1-c1noc(CN2CCN(CCOC)CC2)n1` | -1.76 | 23.33 |
| 36 | `CCOc1ccccc1C(CC(=O)Nc1ccc(C)cn1)NC(C)=O` (stereo not shown) | - | 2.625 |
| 37 | `Cc1cccc(NC(=O)[C@@H]2CCCN2Cc2nc(C)c(C)o2)n1` | 1.552 | -40.42 |
| 38 | `COc1cccc(OC)c1CN1CCC2(CC(Nc3ccncn3)C2)C1` (stereo not shown) | - | 5.556 |
| 39 | `CN(C)C(=O)c1cccc(CN2CCN(CC(O)C(C)(C)C)CC2)c1` (stereo not shown) | - | -16.16 |
| 40 | `Cc1ncc(CNC(=O)N(C)Cc2ccc([S+](C)[O-])cc2)s1` (stereo not shown) | -17.25 | 4.01 |
| 41 | `Cc1nc(C)n(CC2CCCN(Cc3ccc4c(c3)OCCO4)C2)n1` (stereo not shown) | 7.597 | -4.608 |
| 42 | `CCc1nnc2n1CCN(C(=O)c1ccc(C)c(S(N)(=O)=O)c1)C2` | 9.674 | -4.538 |
| 43 | `CCn1ncc2c1C(COCC1CC1)N(C(=O)c1ccncn1)CC2.O=C(O)C(F)(F)F` (stereo not shown) | 29.66 | 15.35 |
| 44 | `[H][C@@]12CCN(S(C)(=O)=O)[C@]1([H])CC[C@@H](C(=O)NCc1cccnc1)O2` | 16.35 | -20.05 |
| 45 | `COc1ccc(NC(=O)NC(C)Cc2ccco2)cn1` (stereo not shown) | - | 13.48 |
| 46 | `COc1ccc2c(c1)CN(C)C(=O)CCN2CC(O)C(F)(F)F` (stereo not shown) | -18.52 | 35.74 |
| 47 | `CCc1ocnc1C(=O)N1CCC(C2CCN(c3ncccn3)CC2)C1` (stereo not shown) | 16.84 | 7.689 |
| 48 | `CC(C)(NC(=O)c1scnc1Cl)c1ccccc1` | -13.73 | -8.662 |
| 49 | `COc1ccccc1CNc1c(N2CCN(C(C)=O)CC2)c(=O)c1=O` | 16.18 | -24.88 |
| 50 | `CSCC(=O)N1CCCC(c2cc(C)[nH]n2)C1` (stereo not shown) | - | -9.546 |
| 51 | `Cc1ncsc1CN(C)C(=O)C(CC(C)C)N1CCCCC1=O` (stereo not shown) | 14.68 | 9.392 |
| 52 | `CS(=O)(=O)c1cccc(S(=O)(=O)NC(=O)CC2CCCC2)c1` | 27.57 | 5.799 |

Source: ChEMBL document CHEMBL3988442, “University of Dundee, Small-Polar-MMV Screening Library” (2021).